Experiment [1] concerns the target T1, Mycobacterium smegmatis HelD-FLAG (Mycobacterium smegmatis) (UniProt A0QUE0).
T1 sequence: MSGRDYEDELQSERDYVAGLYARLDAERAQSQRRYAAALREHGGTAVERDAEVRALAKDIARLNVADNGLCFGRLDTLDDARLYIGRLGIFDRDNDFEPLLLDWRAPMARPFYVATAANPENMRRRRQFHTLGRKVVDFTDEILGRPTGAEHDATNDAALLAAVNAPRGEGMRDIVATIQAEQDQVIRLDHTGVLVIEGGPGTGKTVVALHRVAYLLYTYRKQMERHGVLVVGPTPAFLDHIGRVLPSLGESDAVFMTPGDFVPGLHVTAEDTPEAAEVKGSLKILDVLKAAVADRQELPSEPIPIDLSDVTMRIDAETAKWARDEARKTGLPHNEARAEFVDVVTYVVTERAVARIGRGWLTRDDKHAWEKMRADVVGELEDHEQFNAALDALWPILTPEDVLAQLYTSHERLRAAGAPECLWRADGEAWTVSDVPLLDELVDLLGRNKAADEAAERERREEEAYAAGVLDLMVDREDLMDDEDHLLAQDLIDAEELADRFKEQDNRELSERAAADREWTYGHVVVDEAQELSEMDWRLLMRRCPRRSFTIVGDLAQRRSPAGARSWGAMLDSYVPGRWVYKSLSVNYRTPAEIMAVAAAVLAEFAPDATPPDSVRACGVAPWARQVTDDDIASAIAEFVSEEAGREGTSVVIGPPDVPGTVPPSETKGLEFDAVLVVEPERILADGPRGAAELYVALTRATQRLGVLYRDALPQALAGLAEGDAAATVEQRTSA
The experiment in a line: co-IP; M. smegmatis lysates (20 mM Tris-HCl pH 8, 150 mM KCl, 1 mM MgCl2) on ANTI-FLAG M2 agarose overnight at 4 °C, eluted with 3x FLAG peptide; SDS-PAGE with bands identified by mass spectrometry, or western blot (anti-β, anti-σA). A general note: In western blotting, separated proteins are transferred to a membrane and probed.

By UniProt entry, the sequences of proteins in these tests, tags left out. Where a name states a change or a piece, a line headed by the entry shows the natural chain unless it says otherwise.
UniProt A0QSL8: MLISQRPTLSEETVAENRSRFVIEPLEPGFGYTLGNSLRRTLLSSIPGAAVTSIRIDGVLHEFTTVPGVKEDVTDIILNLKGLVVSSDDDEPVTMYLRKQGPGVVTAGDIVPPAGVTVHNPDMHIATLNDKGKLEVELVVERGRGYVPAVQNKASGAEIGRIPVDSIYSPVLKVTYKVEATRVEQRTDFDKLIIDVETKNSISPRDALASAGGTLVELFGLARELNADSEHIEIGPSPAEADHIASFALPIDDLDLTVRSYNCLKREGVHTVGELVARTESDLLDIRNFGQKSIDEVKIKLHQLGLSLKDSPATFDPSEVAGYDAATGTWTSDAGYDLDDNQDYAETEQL

Experiment [2] addresses T2, Mycobacterium smegmatis RbpA-FLAG (Mycobacterium smegmatis) (UniProt A0QZ11).
T2 sequence: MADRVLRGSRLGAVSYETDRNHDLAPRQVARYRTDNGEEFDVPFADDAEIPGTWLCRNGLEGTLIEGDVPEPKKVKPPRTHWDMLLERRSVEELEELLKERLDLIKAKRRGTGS
The description is as above.

Results are given in words; binding and its absence hold for the method and conditions named. Binding seen in cells or lysates may run through a third protein. Some results given as binding are weak or reduced against the parent protein; the word gives no strength. Sequences can lack the tags named with a protein.

As for “Mycobacterium smegmatis RNAP core, endogenous (from UniProt A0QSL8 1-350; P60281 1-1169; A0QS66 1-1317; A0QWT1 1-107) (complex)”, the binding result in experiment [1] and in experiment [2] was “binds” in each case.

Source of the values: article PMC7749160.
